Paper PMC10366226
These are yes or no findings as the source states them, for the method shown. Binding seen in cells or lysates may run through a third protein. Some entries that bind do so weakly or less than the wild type.

By UniProt entry, the sequences of proteins in these tests, tags left out. Residues count along the entry.
UniProt Q9QUK6, residues 26-835: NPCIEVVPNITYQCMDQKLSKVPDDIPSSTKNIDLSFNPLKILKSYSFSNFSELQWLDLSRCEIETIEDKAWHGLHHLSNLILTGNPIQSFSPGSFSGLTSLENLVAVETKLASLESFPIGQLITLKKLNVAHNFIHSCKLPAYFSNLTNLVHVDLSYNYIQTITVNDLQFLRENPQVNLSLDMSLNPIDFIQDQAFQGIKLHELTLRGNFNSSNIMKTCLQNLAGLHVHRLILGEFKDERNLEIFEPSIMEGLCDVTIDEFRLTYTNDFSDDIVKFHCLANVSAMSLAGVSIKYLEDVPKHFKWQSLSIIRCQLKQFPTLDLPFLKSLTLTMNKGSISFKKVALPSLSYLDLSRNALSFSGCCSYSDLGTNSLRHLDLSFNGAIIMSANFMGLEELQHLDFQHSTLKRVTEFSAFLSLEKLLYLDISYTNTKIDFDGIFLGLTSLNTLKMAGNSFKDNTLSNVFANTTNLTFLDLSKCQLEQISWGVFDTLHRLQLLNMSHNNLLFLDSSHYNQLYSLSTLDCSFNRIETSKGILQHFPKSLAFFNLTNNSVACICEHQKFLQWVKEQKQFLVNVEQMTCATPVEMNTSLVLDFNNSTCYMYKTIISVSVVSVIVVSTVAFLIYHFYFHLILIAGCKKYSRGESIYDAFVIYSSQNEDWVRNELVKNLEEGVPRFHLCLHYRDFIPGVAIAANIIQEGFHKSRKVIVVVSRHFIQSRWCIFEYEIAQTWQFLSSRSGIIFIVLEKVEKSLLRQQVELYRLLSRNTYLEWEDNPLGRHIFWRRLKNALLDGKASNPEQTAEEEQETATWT
UniProt Q62083: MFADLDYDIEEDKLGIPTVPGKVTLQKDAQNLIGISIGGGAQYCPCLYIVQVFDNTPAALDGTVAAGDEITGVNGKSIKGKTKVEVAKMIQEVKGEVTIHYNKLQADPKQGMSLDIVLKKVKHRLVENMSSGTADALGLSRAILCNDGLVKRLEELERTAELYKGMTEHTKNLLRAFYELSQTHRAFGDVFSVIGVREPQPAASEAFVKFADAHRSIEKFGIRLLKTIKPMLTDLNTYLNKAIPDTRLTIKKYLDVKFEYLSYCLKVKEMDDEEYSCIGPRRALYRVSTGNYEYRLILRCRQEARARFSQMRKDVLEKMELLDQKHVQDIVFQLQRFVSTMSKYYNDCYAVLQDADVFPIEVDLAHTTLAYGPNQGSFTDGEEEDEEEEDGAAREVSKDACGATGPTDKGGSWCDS

Target: toll-like receptor 4 (mouse (endogenous in liver macrophages)) (UniProt Q9QUK6)
Experiment: co-IP; lysates of mouse liver macrophages incubated with antibodies (anti-PICK1, anti-TLR4, anti-IgG) at 4 °C overnight, then protein A/G magnetic beads; immunoblot

binding: binds
Substance: Protein interacting with C α kinase 1 (from UniProt Q62083 1-416)
